The source of these data is paper PMC11211510, “Sequence-specific dynamic DNA bending explains mitochondrial TFAM’s dual role in DNA packaging and transcription initiation”.

For at least one entry, the source does not settle the construct or the ends of the probe. For part of these data: A weaker result is weaker than the reference pair of the same experiment. At least one verdict rests on a figure or table, not on a statement of the authors. Where a protein sequence is shown, tags need not be part of it.

For data set [1], the target named is T1, TFAM-ΔC26 (C-tail deletion) (UniProt Q00059).
T1 sequence (looked up): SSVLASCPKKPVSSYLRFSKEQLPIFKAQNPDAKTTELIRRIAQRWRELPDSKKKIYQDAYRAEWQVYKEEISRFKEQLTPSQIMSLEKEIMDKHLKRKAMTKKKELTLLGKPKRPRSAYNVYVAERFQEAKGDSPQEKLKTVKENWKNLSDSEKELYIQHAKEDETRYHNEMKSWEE
Kind of data set: fluorescence anisotropy. The following applies: discrimination for LSP lost, Kd only in Fig. 4J; 50 mM Tris acetate pH 7.5, 100 mM Na glutamate, 50 mM NaCl, 10 mM Mg acetate, 0.5 mM TCEP, 0.01% Tween 20, 0.1 mg/ml BSA, 25 °C; 5 nM DNA, 0-75 nM TFAM; recombinant protein; residues 43-220; protein details: SUMO fusion, cleaved; label: fluorescein (FITC) at 3' end of template strand. A general note: Fluorescence polarisation rises when a labelled molecule tumbles more slowly, as on binding a larger partner.

For data set [2], the target named is T1, TFAM-ΔC26 (C-tail deletion). In words: smFRET. The conditions noted are these: biotin-2xPEG18 at 3' end of template; 50 mM Tris acetate pH 7.5, 100 mM Na glutamate, 50 mM NaCl, 10 mM Mg acetate, 0.5 mM TCEP, 0.01% Tween 20, 0.1 mg/ml BSA, 25 °C; 5 nM DNA, 0-75 nM TFAM; recombinant protein; residues 43-220; protein details: SUMO fusion, cleaved.
Data set [3] shares this target. In words: PIFE (single-molecule). The conditions noted are these: 50 mM Tris acetate pH 7.5, 100 mM Na glutamate, 50 mM NaCl, 10 mM Mg acetate, 0.5 mM TCEP, 0.01% Tween 20, 0.1 mg/ml BSA, 25 °C; 5 nM DNA, 0-75 nM TFAM; recombinant protein; residues 43-220; protein details: SUMO fusion, cleaved; label: Cy3 at 5' end of template or non-template strand.

As to “TGTGTTAGTTGGGGGGTGACTGTTAAAAGT (double strand) [LSP (-41 to -12), fluorescein]”, the binding result in data set [1] is “binds more weakly”.

Turning to “TGTGTTAGTTGGGGGGTGACTGTTAAAAGT (double strand) [LSP, Atto565/Atto647N]”, in data set [2], the binding result was “binds”.

Take “TGTGTTAGTTGGGGGGTGACTGTTAAAAGT (double strand) [LSP, Cy3]”: in data set [3], the binding result is listed as “binds”.
